# Source: article PMC6488588
# Protein sequences, listed by entry. Tags and fused reporters are not part of them.
# UniProt Q96CV9: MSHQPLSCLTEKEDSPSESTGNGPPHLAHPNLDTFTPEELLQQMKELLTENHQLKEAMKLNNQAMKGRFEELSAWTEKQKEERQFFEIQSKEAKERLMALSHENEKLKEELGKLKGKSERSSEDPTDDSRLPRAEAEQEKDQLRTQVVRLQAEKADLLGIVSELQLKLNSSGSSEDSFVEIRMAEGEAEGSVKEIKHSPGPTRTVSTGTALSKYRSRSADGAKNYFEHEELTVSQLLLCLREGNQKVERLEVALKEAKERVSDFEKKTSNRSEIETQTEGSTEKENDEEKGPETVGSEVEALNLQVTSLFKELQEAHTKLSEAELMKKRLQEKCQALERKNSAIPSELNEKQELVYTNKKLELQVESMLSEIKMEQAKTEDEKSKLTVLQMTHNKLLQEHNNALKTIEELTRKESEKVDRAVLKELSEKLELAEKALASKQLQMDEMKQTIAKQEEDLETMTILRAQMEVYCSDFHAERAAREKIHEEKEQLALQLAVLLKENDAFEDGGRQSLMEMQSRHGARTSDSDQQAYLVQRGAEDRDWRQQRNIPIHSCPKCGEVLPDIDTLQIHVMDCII
# These are yes or no findings as the source states them, for the method shown. In cells and extracts the contact can be indirect. Some entries that bind do so weakly or less than the wild type. Where a sequence is shown, tags or fusion partners need not be part of it.
# B1: GFP-tagged NDP52 (protein, UniProt Q13137 1-446)
# chain: MEETIKDPPTSAVLLDHCHFSQVIFNSVEKFYIPGGDVTCHYTFTQHFIPRRKDWIGIFRVGWKTTREYYTFMWVTLPIDLNNKSAKQQEVQFKAYYLPKDDEYYQFCYVDEDGVVRGASIPFQFRPENEEDILVVTTQGEVEEIEQHNKELCKENQELKDSCISLQKQNSDMQAELQKKQEELETLQSINKKLELKVKEQKDYWETELLQLKEQNQKMSSENEKMGIRVDQLQAQLSTQEKEMEKLVQGDQDKTEQLEQLKKENDHLFLSLTEQRKDQKKLEQTVEQMKQNETTAMKKQQELMDENFDLSKRLSENEIICNALQRQKERLEGENDLLKRENSRLLSYMGLDFNSLPYQVPTSDEGGARQNPGLAYGNPYSGIQESSSPSPLSIKKCPICKADDICDHTLEQQQMQPLCFNCPICDKIFPATEKQIFEDHVFCHSL
# Target: T1, Flag-tagged wild-type (WT) Rv1468c (Mycobacterium tuberculosis) (UniProt Q79FP0)
# T1 sequence: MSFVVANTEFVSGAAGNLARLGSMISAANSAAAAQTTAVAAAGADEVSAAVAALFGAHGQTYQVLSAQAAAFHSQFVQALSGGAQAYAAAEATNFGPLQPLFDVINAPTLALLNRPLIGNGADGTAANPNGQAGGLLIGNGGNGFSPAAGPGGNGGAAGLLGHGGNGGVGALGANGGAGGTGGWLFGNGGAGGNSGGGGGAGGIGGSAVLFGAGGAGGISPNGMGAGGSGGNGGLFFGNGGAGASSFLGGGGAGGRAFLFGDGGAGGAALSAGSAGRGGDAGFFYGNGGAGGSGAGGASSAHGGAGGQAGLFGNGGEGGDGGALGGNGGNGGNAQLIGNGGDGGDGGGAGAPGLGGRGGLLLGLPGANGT
# Assay: co-IP
row,Molecule,binding
1,GFP-tagged OPTN (from UniProt Q96CV9 1-577),binds
2,GFP-tagged p62 (from UniProt Q13501 1-440),binds
3,B1,binds
